Data reported in PMC8050384.
No constants are given. Whether binding was seen depends on the method and setting. Some results given as binding are weak or reduced against the parent protein; the word gives no strength.

By UniProt entry, the sequences of proteins in these tests, tags left out. Residues count along the entry.
UniProt P06804: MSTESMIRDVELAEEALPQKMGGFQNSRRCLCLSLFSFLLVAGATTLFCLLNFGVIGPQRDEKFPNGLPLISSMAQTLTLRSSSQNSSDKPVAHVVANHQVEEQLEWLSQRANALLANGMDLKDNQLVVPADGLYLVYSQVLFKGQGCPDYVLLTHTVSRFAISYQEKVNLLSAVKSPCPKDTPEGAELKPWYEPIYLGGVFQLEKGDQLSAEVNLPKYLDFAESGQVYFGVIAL
UniProt P20333, residues 23-257: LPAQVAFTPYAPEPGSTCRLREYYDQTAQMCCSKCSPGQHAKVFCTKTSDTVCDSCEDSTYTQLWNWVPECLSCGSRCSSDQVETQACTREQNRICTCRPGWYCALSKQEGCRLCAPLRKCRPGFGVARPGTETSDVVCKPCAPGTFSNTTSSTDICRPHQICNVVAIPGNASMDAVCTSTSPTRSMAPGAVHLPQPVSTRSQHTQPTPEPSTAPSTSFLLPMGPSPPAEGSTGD

Molecular target: transmembrane tumor necrosis factor (tmTNF), wild type, on bone-marrow-derived macrophages of WT mice (mouse (endogenous in BMDMs)) (UniProt P06804)
Assay: flow cytometry on cells; imaging cytometry (ISX); non-polarized BMDMs stimulated with LPS (50 ng/mL) 30 min, then stained with ETA-dyelight488 in presence of Fc blocker for 20 min at 4° (0 min) or 37°C (20 min); internalization and modulation scores; only the binder purified

## etanercept, a soluble form of TNFR2 coupled to human Fc domain (from UniProt P20333 23-257) (Fc fusion)
  binding: binds
